Assay results reported in article PMC4206862.
These are yes or no findings as the source states them, for the method shown. Binding seen in cells or lysates may run through a third protein. Some binding calls cover weakened binding; strength is not graded here. One block for each molecule: values may come before it.

The chains behind the UniProt entries cited, without tags or fusion partners.
UniProt Q8BGW1: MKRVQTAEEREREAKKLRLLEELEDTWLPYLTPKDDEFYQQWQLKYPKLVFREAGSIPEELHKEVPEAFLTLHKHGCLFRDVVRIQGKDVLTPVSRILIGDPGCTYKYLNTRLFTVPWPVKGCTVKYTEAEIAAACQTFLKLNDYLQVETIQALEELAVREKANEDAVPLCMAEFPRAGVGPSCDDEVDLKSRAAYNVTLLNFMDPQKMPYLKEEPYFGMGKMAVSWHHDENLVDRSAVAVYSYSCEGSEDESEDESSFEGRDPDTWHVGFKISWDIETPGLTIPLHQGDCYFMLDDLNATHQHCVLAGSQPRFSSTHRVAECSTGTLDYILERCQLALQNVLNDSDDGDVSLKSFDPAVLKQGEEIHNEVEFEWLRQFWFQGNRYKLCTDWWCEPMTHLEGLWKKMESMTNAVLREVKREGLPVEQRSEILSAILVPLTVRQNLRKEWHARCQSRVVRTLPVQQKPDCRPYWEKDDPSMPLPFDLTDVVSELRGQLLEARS

How the values were obtained:
[1] = target: Flag-epitope tagged FTO (fat mass and obesity-associated protein), WT full-length (UniProt Q9C0B1); test: co-IP; Flag IP from extracts of HEK-293 cells transfected with vector alone, Flag-FTO or truncated FTO, 48 h; Western blotting of the immunoprecipitates
[2] = target: FTO, endogenous in wild-type mouse embryonic fibroblasts (mouse (endogenous in MEFs)) (UniProt Q8BGW1); test: co-IP; IP of endogenous FTO with anti-FTO antibody from extracts of Fto+/+ and Fto-/- MEFs; Western blotting

binding [1]: binds
Molecule: Exportin 2 (XPO2), endogenous in HEK-293 cells (from UniProt P55060 1-971)

binding [2]: binds
B1: Exportin 2 (XPO2), endogenous in mouse embryonic fibroblasts (protein, UniProt Q9ERK4 1-971)
chain: MELSDANLQTLTEYLKKTLDPDPAIRRPAEKFLESVEGNQNYPLLLLTLLEKSQDNVIKVCASVTFKNYIKRNWRIVEDEPNKICEADRVAIKANIVHLMLSSPEQIQKQLSDAISIIGREDFPQKWPDLLTEMVNRFQSGDFHVINGVLRTAHSLFKRYRHEFKSNELWTEIKLVLDAFALPLTNLFKATIELCSTHANDASALRILFSSLILISKLFYSLNFQDLPEFFEDNMETWMNNFHTLLTLDNKLLQTDDEEEAGLLELLKSQICDNAALYAQKYDEEFQRYLPRFVTAIWNLLVTTGREVKYDLLVSNAIQFLASVCERPHYKNLFEDQNTLTSICEKVIVPNMEFRAADEEAFEDNSEEYIRRDLEGSDIDTRRRAACDLVRGLCKFFEGPVTGIFSGYVNSMLQEYAKNPSVNWKHKDAAIYLVTSLASKAQTQKHGITQANELVNLTEFFVNHILPDLKSNNVNEFPVLKADGIKYIMIFRNQVPKEHLLVSIPLLISHLEAESIVVHTYAAHALERLFTMRGSNNTTLFTAAEIAPFVEILLTNLFKALTLPGSSENEYIMKAIMRSFSLLQEAIIPYIPTLITQLTQKLLAVSKNPSKPHFNHYMFEAICLSIRITCKANPAAVVNFEEALFLVFTEILQNDVQEFIPYVFQVMSLLLETHKNDIPSSYMALFPHLLQPVLWERTGNIPALVRLLQAFLERGSSTIATAAADKIPGLLGVFQKLIASKANDHQGFYLLNSIIEHMPPESVDQYRKQIFILLFQRLQNSKTTKFIKSFLVFINLYCIKYGALALQEIFDGIQPKMFGMVLEKIIIPEIQKVSGNVEKKICAVGITKLLTECPPMMDTEYTKLWTPLLQSLIGLFELPEDDSIPDEEHFIDIEDTPGYQTAFSQLAFAGKKEHDPVGQMVNNPKIHLAQSLHKLSTACPGRVPSMVSTSLNAEALQYLQGYLQAASVTLL
